PMC11005040, “Photoactivatable Ruthenium Complexes Containing Minimal Straining Benzothiazolyl-1,2,3-triazole Chelators for Cancer Treatment” (Inorganic Chemistry, 2024)

assay: Singlet oxygen quantum yield (DPBF); format: physicochemical; conditions: aerated acetonitrile, irradiation 465 nm

SMILES | 1O2 generation quantum yield ΦΔ (air)
Cc1ccc(-n2cc(-c3nc4ccccc4s3)nn2)cc1.O=S(=O)([O-])C(F)(F)F.O=S(=O)([O-])C(F)(F)F.[Ru+2].c1cnc2c(c1)ccc1cccnc12.c1cnc2c(c1)ccc1cccnc12 [Ru1, [Ru(phen)2(L1)][OTf]2] | 0.02
CN(C)c1ccc(-n2cc(-c3nc4ccccc4s3)nn2)cc1.O=S(=O)([O-])C(F)(F)F.O=S(=O)([O-])C(F)(F)F.[Ru+2].c1cnc2c(c1)ccc1cccnc12.c1cnc2c(c1)ccc1cccnc12 [Ru5, [Ru(phen)2(L5)][OTf]2] | 0.01
O=S(=O)([O-])C(F)(F)F.O=S(=O)([O-])C(F)(F)F.O=[N+]([O-])c1ccc(-n2cc(-c3nc4ccccc4s3)nn2)cc1.[Ru+2].c1cnc2c(c1)ccc1cccnc12.c1cnc2c(c1)ccc1cccnc12 [Ru4, [Ru(phen)2(L4)][OTf]2] | 0.04
FC(F)(F)c1ccc(-n2cc(-c3nc4ccccc4s3)nn2)cc1.O=S(=O)([O-])C(F)(F)F.O=S(=O)([O-])C(F)(F)F.[Ru+2].c1cnc2c(c1)ccc1cccnc12.c1cnc2c(c1)ccc1cccnc12 [Ru3, [Ru(phen)2(L3)][OTf]2] | 0.03
